The text below walks through data of the supplement of paper PMC12067093, “Discovery and optimisation of a covalent ligand for TRIM25 and its application to targeted protein ubiquitination” (Chemical Science, 2025).

Protein sequences, listed by entry. Tags and fused reporters are not part of them. Lines headed by an entry give the natural chain unless they say otherwise; changes in a name come on top.
UniProt O75122: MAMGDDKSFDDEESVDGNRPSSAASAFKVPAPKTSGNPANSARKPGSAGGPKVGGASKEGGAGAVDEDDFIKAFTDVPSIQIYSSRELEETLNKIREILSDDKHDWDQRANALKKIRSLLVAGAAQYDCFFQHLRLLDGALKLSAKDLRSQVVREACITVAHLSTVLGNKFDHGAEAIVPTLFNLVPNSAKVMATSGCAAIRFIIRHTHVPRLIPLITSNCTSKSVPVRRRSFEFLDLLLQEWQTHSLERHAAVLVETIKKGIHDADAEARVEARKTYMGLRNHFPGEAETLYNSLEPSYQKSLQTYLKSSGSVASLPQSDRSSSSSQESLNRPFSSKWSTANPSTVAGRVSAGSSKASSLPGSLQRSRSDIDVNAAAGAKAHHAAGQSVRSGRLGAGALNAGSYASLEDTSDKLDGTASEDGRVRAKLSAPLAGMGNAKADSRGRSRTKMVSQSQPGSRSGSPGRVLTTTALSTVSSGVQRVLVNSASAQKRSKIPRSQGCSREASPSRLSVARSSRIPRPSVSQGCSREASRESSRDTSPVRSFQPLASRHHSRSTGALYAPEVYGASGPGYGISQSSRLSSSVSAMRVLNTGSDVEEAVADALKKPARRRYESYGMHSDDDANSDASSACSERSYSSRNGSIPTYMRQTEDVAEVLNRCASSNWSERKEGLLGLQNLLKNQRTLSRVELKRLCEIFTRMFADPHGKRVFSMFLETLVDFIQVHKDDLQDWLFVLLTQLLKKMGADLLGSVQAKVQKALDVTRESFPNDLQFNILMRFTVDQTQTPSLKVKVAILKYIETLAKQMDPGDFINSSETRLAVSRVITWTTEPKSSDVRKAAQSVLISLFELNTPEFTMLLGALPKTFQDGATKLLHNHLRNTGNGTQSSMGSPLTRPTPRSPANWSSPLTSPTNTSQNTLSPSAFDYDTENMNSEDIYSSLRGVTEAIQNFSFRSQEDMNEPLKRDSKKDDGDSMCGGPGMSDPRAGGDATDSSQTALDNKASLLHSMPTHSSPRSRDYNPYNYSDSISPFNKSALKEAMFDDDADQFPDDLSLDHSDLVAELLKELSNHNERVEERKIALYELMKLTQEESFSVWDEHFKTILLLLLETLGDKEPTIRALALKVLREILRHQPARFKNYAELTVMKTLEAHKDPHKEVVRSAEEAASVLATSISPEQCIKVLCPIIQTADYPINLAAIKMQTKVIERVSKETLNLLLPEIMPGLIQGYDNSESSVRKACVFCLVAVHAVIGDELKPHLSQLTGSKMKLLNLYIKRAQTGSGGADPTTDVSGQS
UniProt Q6FI81: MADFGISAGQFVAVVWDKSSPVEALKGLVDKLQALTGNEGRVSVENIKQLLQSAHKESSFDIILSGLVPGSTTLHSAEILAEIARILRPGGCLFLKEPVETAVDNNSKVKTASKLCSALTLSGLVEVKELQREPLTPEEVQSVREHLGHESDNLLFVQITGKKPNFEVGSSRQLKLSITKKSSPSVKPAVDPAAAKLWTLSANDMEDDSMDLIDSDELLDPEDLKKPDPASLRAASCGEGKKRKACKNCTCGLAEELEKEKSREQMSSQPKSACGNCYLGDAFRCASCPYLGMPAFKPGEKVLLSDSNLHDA
UniProt Q13111, whole entry, looked up: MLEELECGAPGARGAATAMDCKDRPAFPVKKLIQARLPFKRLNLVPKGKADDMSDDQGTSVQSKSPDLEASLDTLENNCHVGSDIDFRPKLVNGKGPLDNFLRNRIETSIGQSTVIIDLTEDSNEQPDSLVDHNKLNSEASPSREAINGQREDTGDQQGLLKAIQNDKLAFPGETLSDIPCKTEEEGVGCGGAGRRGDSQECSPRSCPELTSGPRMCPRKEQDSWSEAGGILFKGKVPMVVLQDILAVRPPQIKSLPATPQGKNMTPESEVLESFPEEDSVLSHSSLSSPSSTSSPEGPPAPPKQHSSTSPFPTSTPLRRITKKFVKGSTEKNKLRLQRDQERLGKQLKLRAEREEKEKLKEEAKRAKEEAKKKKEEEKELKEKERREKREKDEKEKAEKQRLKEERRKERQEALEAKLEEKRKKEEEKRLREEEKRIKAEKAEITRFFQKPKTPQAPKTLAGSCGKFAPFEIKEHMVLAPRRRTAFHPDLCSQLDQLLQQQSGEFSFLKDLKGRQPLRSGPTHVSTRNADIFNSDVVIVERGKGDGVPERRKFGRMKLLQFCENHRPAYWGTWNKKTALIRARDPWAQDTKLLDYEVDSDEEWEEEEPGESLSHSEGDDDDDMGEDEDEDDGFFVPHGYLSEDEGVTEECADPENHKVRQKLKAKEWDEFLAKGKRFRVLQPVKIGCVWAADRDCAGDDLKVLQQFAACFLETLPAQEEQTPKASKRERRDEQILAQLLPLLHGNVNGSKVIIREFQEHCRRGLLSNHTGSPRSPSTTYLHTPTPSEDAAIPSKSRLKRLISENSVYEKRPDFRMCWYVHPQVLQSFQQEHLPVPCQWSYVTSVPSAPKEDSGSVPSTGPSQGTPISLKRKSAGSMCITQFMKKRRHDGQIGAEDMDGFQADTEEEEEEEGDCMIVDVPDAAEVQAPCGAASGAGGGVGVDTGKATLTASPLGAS
UniProt O75153: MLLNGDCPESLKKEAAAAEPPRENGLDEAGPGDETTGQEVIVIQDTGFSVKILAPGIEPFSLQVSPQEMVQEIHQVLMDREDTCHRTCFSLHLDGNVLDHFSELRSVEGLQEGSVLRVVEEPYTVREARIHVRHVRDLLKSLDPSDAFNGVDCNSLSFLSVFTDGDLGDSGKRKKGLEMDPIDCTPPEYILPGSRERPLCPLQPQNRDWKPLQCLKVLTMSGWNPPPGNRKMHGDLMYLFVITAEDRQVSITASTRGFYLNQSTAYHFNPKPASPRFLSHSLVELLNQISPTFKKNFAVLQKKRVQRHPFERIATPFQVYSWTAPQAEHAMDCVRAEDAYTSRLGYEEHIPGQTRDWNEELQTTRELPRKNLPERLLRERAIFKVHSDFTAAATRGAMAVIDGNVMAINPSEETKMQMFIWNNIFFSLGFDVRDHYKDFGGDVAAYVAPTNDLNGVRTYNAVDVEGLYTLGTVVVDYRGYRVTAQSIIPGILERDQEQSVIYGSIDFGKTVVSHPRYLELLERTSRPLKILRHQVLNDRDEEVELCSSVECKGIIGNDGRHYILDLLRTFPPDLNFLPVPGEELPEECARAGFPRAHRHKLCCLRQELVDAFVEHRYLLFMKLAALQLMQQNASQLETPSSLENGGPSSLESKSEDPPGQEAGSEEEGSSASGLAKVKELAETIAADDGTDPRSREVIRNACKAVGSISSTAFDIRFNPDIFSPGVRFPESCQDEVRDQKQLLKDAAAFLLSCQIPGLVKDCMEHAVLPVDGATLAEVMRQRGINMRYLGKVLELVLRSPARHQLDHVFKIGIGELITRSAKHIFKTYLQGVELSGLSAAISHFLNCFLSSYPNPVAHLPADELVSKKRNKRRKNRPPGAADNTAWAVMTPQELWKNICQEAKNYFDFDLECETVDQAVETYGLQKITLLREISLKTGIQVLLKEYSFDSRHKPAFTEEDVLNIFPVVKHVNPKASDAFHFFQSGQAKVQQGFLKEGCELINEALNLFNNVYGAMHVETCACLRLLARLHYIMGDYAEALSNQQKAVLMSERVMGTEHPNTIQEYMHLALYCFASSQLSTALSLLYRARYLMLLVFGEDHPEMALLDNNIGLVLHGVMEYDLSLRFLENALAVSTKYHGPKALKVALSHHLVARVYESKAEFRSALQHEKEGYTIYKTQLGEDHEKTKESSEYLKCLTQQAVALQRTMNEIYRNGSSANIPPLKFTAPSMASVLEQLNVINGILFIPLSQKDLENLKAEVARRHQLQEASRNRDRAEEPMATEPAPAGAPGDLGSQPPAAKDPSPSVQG
UniProt O76031, whole entry, looked up: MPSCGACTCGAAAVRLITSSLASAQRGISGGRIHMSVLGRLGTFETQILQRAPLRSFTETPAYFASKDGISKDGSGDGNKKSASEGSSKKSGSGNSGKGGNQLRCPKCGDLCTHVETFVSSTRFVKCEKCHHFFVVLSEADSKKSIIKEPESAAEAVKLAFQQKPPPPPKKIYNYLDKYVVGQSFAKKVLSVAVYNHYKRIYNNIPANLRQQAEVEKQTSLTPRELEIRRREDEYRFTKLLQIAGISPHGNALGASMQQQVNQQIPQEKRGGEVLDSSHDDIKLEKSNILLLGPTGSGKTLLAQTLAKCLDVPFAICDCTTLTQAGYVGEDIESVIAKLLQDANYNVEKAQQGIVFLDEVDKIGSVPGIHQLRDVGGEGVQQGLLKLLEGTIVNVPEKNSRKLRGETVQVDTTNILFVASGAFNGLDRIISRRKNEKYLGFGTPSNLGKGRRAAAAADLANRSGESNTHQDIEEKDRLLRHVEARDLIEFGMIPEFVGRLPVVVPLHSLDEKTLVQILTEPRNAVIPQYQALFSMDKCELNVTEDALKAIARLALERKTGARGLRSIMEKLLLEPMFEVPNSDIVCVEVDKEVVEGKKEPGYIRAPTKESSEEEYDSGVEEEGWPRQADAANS
UniProt Q8WVB6, whole entry, looked up: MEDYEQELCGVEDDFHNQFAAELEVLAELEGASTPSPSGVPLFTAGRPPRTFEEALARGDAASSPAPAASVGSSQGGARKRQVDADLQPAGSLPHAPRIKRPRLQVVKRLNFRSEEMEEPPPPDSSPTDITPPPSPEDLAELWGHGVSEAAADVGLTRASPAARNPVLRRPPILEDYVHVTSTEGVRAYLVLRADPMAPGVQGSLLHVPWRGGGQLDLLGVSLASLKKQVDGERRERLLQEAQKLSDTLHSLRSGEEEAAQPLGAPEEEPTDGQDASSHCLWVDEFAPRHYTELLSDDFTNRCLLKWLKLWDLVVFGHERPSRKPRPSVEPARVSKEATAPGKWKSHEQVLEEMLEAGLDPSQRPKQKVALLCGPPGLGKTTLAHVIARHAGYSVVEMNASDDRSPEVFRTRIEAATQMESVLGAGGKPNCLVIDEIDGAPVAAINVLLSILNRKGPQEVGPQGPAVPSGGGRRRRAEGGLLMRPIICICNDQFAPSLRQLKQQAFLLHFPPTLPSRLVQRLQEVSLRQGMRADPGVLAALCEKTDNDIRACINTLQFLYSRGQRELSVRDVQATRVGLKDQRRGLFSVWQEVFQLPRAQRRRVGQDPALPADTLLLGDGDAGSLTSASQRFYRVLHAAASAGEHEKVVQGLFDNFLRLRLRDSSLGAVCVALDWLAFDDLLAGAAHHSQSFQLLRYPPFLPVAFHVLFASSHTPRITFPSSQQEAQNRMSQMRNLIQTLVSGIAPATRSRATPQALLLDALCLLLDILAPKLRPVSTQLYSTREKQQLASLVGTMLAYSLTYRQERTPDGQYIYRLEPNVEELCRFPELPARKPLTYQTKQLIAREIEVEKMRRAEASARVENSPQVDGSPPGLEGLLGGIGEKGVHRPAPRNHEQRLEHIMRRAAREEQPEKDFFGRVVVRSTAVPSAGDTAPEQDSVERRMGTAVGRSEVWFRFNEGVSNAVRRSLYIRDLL
UniProt P12277: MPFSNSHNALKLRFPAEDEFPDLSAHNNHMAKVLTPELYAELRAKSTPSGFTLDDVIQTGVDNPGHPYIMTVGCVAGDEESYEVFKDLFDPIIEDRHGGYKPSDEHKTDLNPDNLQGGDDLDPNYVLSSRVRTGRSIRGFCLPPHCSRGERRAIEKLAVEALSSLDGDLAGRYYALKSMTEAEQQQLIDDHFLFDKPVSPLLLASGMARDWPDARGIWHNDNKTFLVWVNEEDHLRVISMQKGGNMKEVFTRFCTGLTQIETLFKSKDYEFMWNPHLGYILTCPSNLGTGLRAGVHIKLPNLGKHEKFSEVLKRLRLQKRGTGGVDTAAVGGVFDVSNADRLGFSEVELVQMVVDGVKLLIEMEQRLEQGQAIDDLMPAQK
UniProt P24386: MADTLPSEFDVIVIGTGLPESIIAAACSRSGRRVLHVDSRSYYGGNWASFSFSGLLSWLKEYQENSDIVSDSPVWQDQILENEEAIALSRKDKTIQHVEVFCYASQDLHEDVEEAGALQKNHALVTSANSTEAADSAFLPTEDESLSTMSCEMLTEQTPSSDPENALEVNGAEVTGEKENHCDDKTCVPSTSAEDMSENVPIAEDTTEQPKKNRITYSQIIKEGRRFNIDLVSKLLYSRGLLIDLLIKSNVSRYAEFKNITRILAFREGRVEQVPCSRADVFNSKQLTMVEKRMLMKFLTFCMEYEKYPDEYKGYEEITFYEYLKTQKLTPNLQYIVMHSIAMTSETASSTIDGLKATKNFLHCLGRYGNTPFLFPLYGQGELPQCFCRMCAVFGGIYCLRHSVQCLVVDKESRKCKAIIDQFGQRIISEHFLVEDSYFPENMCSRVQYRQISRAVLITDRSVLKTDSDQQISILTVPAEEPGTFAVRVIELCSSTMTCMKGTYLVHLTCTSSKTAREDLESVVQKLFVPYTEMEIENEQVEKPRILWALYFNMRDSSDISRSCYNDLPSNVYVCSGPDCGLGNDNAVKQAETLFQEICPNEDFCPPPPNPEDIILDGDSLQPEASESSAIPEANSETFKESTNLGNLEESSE

This is one part of the list.

Compound in this experiment: CC1Cc2ccccc2N1C(=O)C1CCCN(C1)C(=O)CCl (mixture of isomers) [TRIM25 ligand 11 (diastereomer mixture)]
As to the kind of experiment: probe-labelled cysteine peptide fold change vs DMSO (competition) (log2 fold change); higher = less target engagement (more negative = stronger competition). The conditions noted are these: THP-1, incubation time: 4 h.
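Note: competitive chemoproteomic profiling in live THP-1 cells with an iodoacetamide desthiobiotin (IA-DTB) probe, comparing probe-labelled peptide intensities in compound-treated cells against DMSO-treated controls.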

As to “CHML_P26374_187_TCMHTVSDK (UniProt P26374)”, the “probe-labelled cysteine peptide fold change” value is -0.044 (10 µM) and -0.277 (50 µM).

As for “CHAF1B_Q13112_6_VITCEIAWHNK (UniProt Q13112)”, the “probe-labelled cysteine peptide fold change” value turned out to be 0.0543 (10 µM) and 0.02 (50 µM).

In the case of “CLASP2_O75122_976_KDDGDSMCGGPGMSDPR (UniProt O75122)”, the “probe-labelled cysteine peptide fold change” value is -0.174 (10 µM) and -0.481 (50 µM).

On to “CLEC16A_Q2KHT3_588_DVHLACLEGAREESVHLVR (UniProt Q2KHT3)”, for which the “probe-labelled cysteine peptide fold change” value was -0.164 (10 µM) and -0.105 (50 µM).

Regarding “CLTC_Q00610_328_KGQVLSVCVEEENIIPYITNVLQNPDLALR (UniProt Q00610)”, the “probe-labelled cysteine peptide fold change” value by setting is: (10 µM) -0.266; (50 µM) 0.239.

As to “CIAPIN1_Q6FI81_249+251_NCTCGLAEELEK (UniProt Q6FI81)”, the “probe-labelled cysteine peptide fold change” value is -0.0666 (10 µM) and -0.108 (50 µM).

Regarding “CLIC4_Q9Y696_35_AGSDGESIGNCPFSQR (UniProt Q9Y696)”, the “probe-labelled cysteine peptide fold change” value is, setting by setting: (10 µM) -0.118; (50 µM) 0.11.

Take “CGGBP1_Q9UFW8_43+46_LFCTSCNVVLNHVR (UniProt Q9UFW8)”: the “probe-labelled cysteine peptide fold change” value (10 µM) is 0.00061 and the “probe-labelled cysteine peptide fold change” value (50 µM) worked out at 0.227.

As for “CES1_P23141_274_PLAEQIAITAGCK (UniProt P23141)”, the “probe-labelled cysteine peptide fold change” value reads like this: (10 µM) -0.141; (50 µM) 0.297.

With “CHAF1A_Q13111_79_SPDLEASLDTLENNCHVGSDIDFRPK (UniProt Q13111)”, the “probe-labelled cysteine peptide fold change” value was 0.0541 (10 µM) and -0.182 (50 µM).

“CHORDC1_Q9UHD1_194+195_YWSCCR (UniProt Q9UHD1)”: the “probe-labelled cysteine peptide fold change” value is, setting by setting: (10 µM) 0.132; (50 µM) 0.179.

For the target “CLUH_O75153_1196_CLTQQAVALQR (UniProt O75153)”, the “probe-labelled cysteine peptide fold change” value is -0.00877 (10 µM) and -0.228 (50 µM).

For the target “CLIC1_O00299_178_KFLDGNELTLADCNLLPK (UniProt O00299)”, the “probe-labelled cysteine peptide fold change” value by setting is: (10 µM) -0.123; (50 µM) 0.000904.

“CLUH_O75153_200_ERPLCPLQPQNR (UniProt O75153)”: the “probe-labelled cysteine peptide fold change” value runs as follows: (10 µM) -0.0542; (50 µM) 0.097.

For “CLEC11A_Q9Y240_319_LYYVCEFPF (UniProt Q9Y240)”, the “probe-labelled cysteine peptide fold change” value reads like this: (10 µM) -0.116; (50 µM) 0.0121.

As for “CFAP36_Q96G28_138_NGVLPDCLTDGSDVVSDLEHEEMK (UniProt Q96G28)”, the “probe-labelled cysteine peptide fold change” value was -0.107 (10 µM) and -0.313 (50 µM).

Regarding “CLIC1_O00299_24_IGNCPFSQR (UniProt O00299)”, the “probe-labelled cysteine peptide fold change” value is -0.0317 (10 µM) and 0.0307 (50 µM).

On to “CHERP_Q8IWX8_69_LALEQQQLICK (UniProt Q8IWX8)”, for which the “probe-labelled cysteine peptide fold change” value came to 0.0811 (10 µM) and 0.00437 (50 µM).

As for “CHML_P26374_103_KKDETIQHTEAFCYASQDMEDNVEEIGALQK (UniProt P26374)”, the “probe-labelled cysteine peptide fold change” value reads like this: (10 µM) -0.0959; (50 µM) -0.551.

As for “CHAMP1_Q96JM3_770_CNFESNFPR (UniProt Q96JM3)”, the “probe-labelled cysteine peptide fold change” value is, setting by setting: (10 µM) -0.0713; (50 µM) 0.0125.

Turning to “CHI3L1_P36222_26_LVCYYTSWSQYR (UniProt P36222)”, the “probe-labelled cysteine peptide fold change” value by setting is: (10 µM) 0.222; (50 µM) 0.24.

Regarding “CIAPIN1_Q6FI81_288_CASCPYLGMPAFKPGEK (UniProt Q6FI81)”, the “probe-labelled cysteine peptide fold change” value is -0.0087 (10 µM) and -0.228 (50 µM).

For the target “CLPX_O76031_586_LLLEPMFEVPNSDIVCVEVDK (UniProt O76031)”, the “probe-labelled cysteine peptide fold change” value (10 µM) was determined as 0.0987 and the “probe-labelled cysteine peptide fold change” value (50 µM) is -0.101.

As to “CHST14_Q8NCH0_159_VACSNWK (UniProt Q8NCH0)”, the “probe-labelled cysteine peptide fold change” value runs as follows: (10 µM) 0.0818; (50 µM) 0.116.

For the target “CHTF18_Q8WVB6_825_LEPNVEELCR (UniProt Q8WVB6)”, the “probe-labelled cysteine peptide fold change” value is 0.0127 (10 µM) and -0.293 (50 µM).

With “CHTF18_Q8WVB6_373_VALLCGPPGLGK (UniProt Q8WVB6)”, the “probe-labelled cysteine peptide fold change” value reads like this: (10 µM) 0.0484; (50 µM) 0.138.

In the case of “CKB_P12277_254_FCTGLTQIETLFK (UniProt P12277)”, the “probe-labelled cysteine peptide fold change” value was 0.0398 (10 µM) and -0.0625 (50 µM).

For the target CIC_Q96RK0_1506_VCLQLK (UniProt Q96RK0), the “probe-labelled cysteine peptide fold change” value was -0.246 (10 µM) and -0.186 (50 µM).

Regarding “CIP2A_Q8TCG1_615_DQICDVR (UniProt Q8TCG1)”, the “probe-labelled cysteine peptide fold change” value reads like this: (10 µM) -0.0238; (50 µM) -0.103.

For “CLPB_Q9H078_647_VVNQLAAAYEQDLLPGGCTLR (UniProt Q9H078)”, the “probe-labelled cysteine peptide fold change” value runs as follows: (10 µM) 0.543; (50 µM) 0.0536.

With “CLTC_Q00610_436_FQSVPAQPGQTSPLLQYFGILLDQGQLNKYESLELCRPVLQQGR (UniProt Q00610)”, the “probe-labelled cysteine peptide fold change” value was -0.348 (10 µM) and -0.341 (50 µM).

As to “CIT_O14578_1019_TTCTMLEEQVMDLEALNDELLEK (UniProt O14578)”, the “probe-labelled cysteine peptide fold change” value is -0.0394 (10 µM) and 0.0183 (50 µM).

Consider “CHM_P24386_102_TIQHVEVFCYASQDLHEDVEEAGALQK (UniProt P24386)”, for which the “probe-labelled cysteine peptide fold change” value reads like this: (10 µM) 0.18; (50 µM) -0.164.

For the target “CFL1_P23528_139_KLTGIKHELQANCYEEVK (UniProt P23528)”, the “probe-labelled cysteine peptide fold change” value by setting is: (10 µM) -0.632; (50 µM) -0.503.

Take “CHAF1A_Q13111_878_SAGSMCITQFMK (UniProt Q13111)”: the “probe-labelled cysteine peptide fold change” value by setting is: (10 µM) -0.128; (50 µM) -0.316.

Consider “CLASP2_O75122_502_SQGCSR (UniProt O75122)”, for which the “probe-labelled cysteine peptide fold change” value (10 µM) was -0.154 and the “probe-labelled cysteine peptide fold change” value (50 µM) is -0.166.

For the target “CLASP1_Q7Z460_1212_ECDIVSR (UniProt Q7Z460)”, the “probe-labelled cysteine peptide fold change” value was -0.0418 (10 µM) and -0.0939 (50 µM).

In the case of “CISD3_P0C7P0_98_MVALCTCK (UniProt P0C7P0)”, the “probe-labelled cysteine peptide fold change” value was 0.0723 (10 µM) and -0.00501 (50 µM).

Regarding “CKAP5_Q14008_1026_STPTDLILCVPHLYSCLEDR (UniProt Q14008)”, the “probe-labelled cysteine peptide fold change” value was -0.0301 (10 µM) and 0.0263 (50 µM).

With “CLPX_O76031_538_CELNVTEDALK (UniProt O76031)”, the “probe-labelled cysteine peptide fold change” value is, setting by setting: (10 µM) -0.26; (50 µM) 0.0284.

Consider “CLIP1_P30622_265_YFQCQPK (UniProt P30622)”, for which the “probe-labelled cysteine peptide fold change” value reads like this: (10 µM) 0.00441; (50 µM) 0.153.
